# Results reported in PubChem BioAssay (NCATS).
# This list was built around the results that the source calls inconclusive (neither active nor inactive); the mix of calls is not that of the screen. Where the call is inconclusive, the potency comes from a doubtful curve fit. Activity calls are given as the source filed them. Calls come from the whole dose curve; as a rule, active = well fitted cell-killing curve with a large enough effect; inconclusive = small, poorly fitted or top-dose-only effect, or effect the other way; inactive = no such curve, though single readings can be large or run the other way.
# What was measured:
# [1] = Quantitative High-Throughput drug screen in 47 multiple myeloma cell lines against the NCATS MIPE library collection: KMS34_JCRB cell viability assay (AID 1918985); conditions: KMS34 myeloma viability, CellTiter-Glo ATP luminescence, 48 h; series mostly up to 45.8 µM; note: nearly all actives have a fitted effect of over 40% in size
# How it was run: (§1)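 Myeloma cells (500/well) treated with MIPE 4.0 compounds for 48 h at 37 °C, 5% CO2. Viability read as ATP via CellTiter-Glo luminescence after 5 min at RT; DMSO-only wells = 100%, media-only = 0% viability.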
# [2] = Quantitative High-Throughput drug screen in 47 multiple myeloma cell lines against the NCATS MIPE library collection: OCIMY7_PLB cell viability assay (AID 1918987); conditions: OCI-MY7 myeloma viability, CellTiter-Glo ATP, 48 h; viability (% of DMSO): at 45.8 µM (top of the series); note: nearly all actives have a fitted effect of over 65% in size
# How it was run: as §1
# [3] = Quantitative High-Throughput drug screen in 47 multiple myeloma cell lines against the NCATS MIPE library collection: OCIMY5_PLB cell viability assay (AID 1918988); conditions: OCI-MY5 myeloma viability, ATP luminescence, 48 h; series mostly up to 45.8 µM; note: nearly all actives have a fitted effect of over 65% in size
# How it was run: as §1
# [4] = Quantitative High-Throughput drug screen in 47 multiple myeloma cell lines against the NCATS MIPE library collection: SKMM1_PLB cell viability assay (AID 1919863); conditions: SKMM1 myeloma viability, CellTiter-Glo ATP, 48 h; viability: active compounds read low; note: nearly all actives have a fitted effect of over 35% in size
# How it was run: as §1
# [5] = Quantitative High-Throughput drug screen in 47 multiple myeloma cell lines against the NCATS MIPE library collection: XG6_PLB cell viability assay (AID 1919865); conditions: XG6 myeloma viability, CellTiter-Glo ATP luminescence, 48 h; series mostly up to 45.8 µM; note: nearly all actives have a fitted effect of over 40% in size
# How it was run: as §1
# [6] = Quantitative High-Throughput drug screen in 47 multiple myeloma cell lines against the NCATS MIPE library collection: VP6_DJ cell viability assay (AID 1919867); conditions: ATP luminescence, 48 h; viability (% of DMSO): at 45.8 µM (top of the series); note: nearly all actives have a fitted effect of over 40% in size
# How it was run: as §1
# [7] = Quantitative High-Throughput drug screen in 47 multiple myeloma cell lines against the NCATS MIPE library collection: OPM1_PLB cell viability assay (AID 1918989); note: nearly all actives have a fitted effect of over 40% in size
# How it was run: as §1
# [8] = Quantitative High-Throughput drug screen in 47 multiple myeloma cell lines against the NCATS MIPE library collection: U266_ATCC cell viability assay (AID 1919864); note: nearly all actives have a fitted effect of over 35% in size
# How it was run: as §1
# [9] = Quantitative High-Throughput drug screen in 47 multiple myeloma cell lines against the NCATS MIPE library collection: XG1_PLB cell viability assay (AID 1919866); note: nearly all actives have a fitted effect of over 35% in size
# How it was run: as §1
# Potency is the fitted concentration of half-maximal effect.
compound,measurement,setting,value
CC(=O)OC1C(C)OC(Oc2c(-c3ccc(O)cc3)oc3cc(O)cc(O)c3c2=O)C(O)C1OC(C)=O (configuration not stated),Potency,[1],inactive
same,Potency,[2],"inconclusive: 1.32 µM [cytotoxic, full curve, poor fit]"
same,Potency,[3],"inconclusive: 8.33 µM [cytotoxic, partial curve, poor fit]"
same,Potency,[4],"inconclusive: 9.35 µM [cytotoxic, partial curve, poor fit]"
same,Potency,[5],"inconclusive: 16.6 µM [cytotoxic, partial curve]"
same,Potency,[6],inactive
O=C(Nc1cccc(Br)c1)c1cccc(S(=O)(=O)N2CCCCCC2)c1,Potency,[1],"inconclusive: 14.8 µM [cytotoxic, partial curve, poor fit]"
same,Potency,[2],"inconclusive: 23.5 µM [cytotoxic, partial curve, poor fit]"
same,Potency,[7],active: 18.7 µM
same,Potency,[4],"inconclusive: 5.26 µM [cytotoxic, full curve, poor fit]"
same,Potency,[8],"inconclusive: 37.2 µM [cytotoxic, single point]"
c1ccc2c(Oc3nc(Nc4ccc(N5CCOCC5)cc4)c4ncn(C5CCCCC5)c4n3)cccc2c1,Potency,[1],"inconclusive: 0.105 µM [cytotoxic, full curve, poor fit]"
same,Potency,[3],active: 18.7 µM
same,Potency,[4],"inconclusive: 1.05 µM [cytotoxic, full curve, poor fit]"
same,Potency,[8],"inconclusive: 0.0166 µM [rising, full curve, poor fit]"
same,Potency,[5],"inconclusive: 20.9 µM [cytotoxic, single point]"
same,Potency,[9],active: 18.7 µM
NS(=O)(=O)c1ccc(Nc2nc(OCC3CCCCC3)c3[nH]cnc3n2)cc1,Potency,[1],"inconclusive: 16.6 µM [cytotoxic, partial curve]"
same,Potency,[2],active: 13.2 µM
same,Potency,[4],"inconclusive: 0.0166 µM [cytotoxic, full curve, poor fit]"
C[C@H]1c2cccc(O)c2C(O)=C2C(=O)[C@]3(O)C(O)=C(C(N)=O)C(=O)[C@@H](N(C)C)[C@@H]3[C@@H](O)[C@@H]21,Potency,[1],"inconclusive: 37.2 µM [cytotoxic, single point]"
same,Potency,[3],active: 23.5 µM
same,Potency,[7],"inconclusive: 37.2 µM [cytotoxic, single point]"
same,Potency,[4],"inconclusive: 37.2 µM [cytotoxic, single point]"
same,Potency,[8],"inconclusive: 0.0015 µM [rising, full curve, poor fit]"
same,Potency,[6],"inconclusive: 37.2 µM [cytotoxic, single point]"
NC(=O)c1cccc(-c2cc(Nc3ccc(OC(F)(F)F)cc3)ncn2)c1,Potency,[1],"inconclusive: 14.8 µM [cytotoxic, partial curve, poor fit]"
same,Potency,[3],"inconclusive: 29.6 µM [cytotoxic, partial curve, poor fit]"
same,Potency,[4],"inconclusive: 37.2 µM [cytotoxic, single point]"
same,Potency,[8],"inconclusive: 29.6 µM [cytotoxic, single point]"
same,Potency,[9],"inconclusive: 20.9 µM [cytotoxic, partial curve]"
CCCC1OC2C[C@@H]3[C@H]4CCC5=CC(=O)C=C[C@]5(C)[C@H]4C(O)C[C@]3(C)[C@]2(C(=O)CO)O1 (some centres not stated),Potency,[2],"inconclusive: 13.2 µM [cytotoxic, partial curve, poor fit]"
same,Potency,[3],active: 0.0372 µM
same,Potency,[7],"inconclusive: 0.0264 µM [cytotoxic, full curve, poor fit]"
same,Potency,[4],"inconclusive: 16.6 µM [cytotoxic, partial curve, poor fit]"
same,Potency,[5],inactive
same,Potency,[6],inactive
COCCOC(=O)C1=C(C)NC2=C(C(=O)CC(c3ccccc3OC)C2)C1c1cccc(O)c1 (configuration not stated),Potency,[1],"inconclusive: 37.2 µM [cytotoxic, single point]"
same,Potency,[7],active: 6.62 µM
CC(=O)N1CCN(c2ccc(OCc3nn(C)c(C)c3-c3cccc4c(CCCOc5cc(C)c(Cl)c(C)c5)c(C(=O)O)n(Cc5cccnc5)c34)cc2)CC1,Potency,[1],"inconclusive: 18.7 µM [cytotoxic, partial curve, poor fit]"
same,Potency,[4],"inconclusive: 37.2 µM [cytotoxic, single point]"
NC(=O)c1cnc(-c2ccc(C3(N)CCC3)cc2)c(-c2ccccc2)c1,Potency,[1],"inconclusive: 7.43 µM [cytotoxic, partial curve, poor fit]"
same,Potency,[4],"inconclusive: 0.264 µM [cytotoxic, full curve, poor fit]"
same,Potency,[8],"inconclusive: 37.2 µM [cytotoxic, single point]"
CC1(C)CCC(CN2CCN(c3ccc(C(=O)NS(=O)(=O)c4ccc(NCC5CCOCC5)c([N+](=O)[O-])c4)c(Oc4cnc5[nH]ccc5c4)c3)CC2)=C(c2ccc(Cl)cc2)C1,Potency,[8],"inconclusive: 23.5 µM [cytotoxic, partial curve, poor fit]"
same,Potency,[5],"inconclusive: 33.2 µM [cytotoxic, single point]"
same,Potency,[9],"inconclusive: 18.7 µM [cytotoxic, partial curve]"
O=C(CCc1ccc(O)cc1)c1c(O)cc(O)cc1O,Potency,[1],"inconclusive: 1.87 µM [cytotoxic, full curve]"
same,Potency,[8],inactive
COc1cc(C(=O)NC2CCN(C)CC2)ccc1Nc1ncc2c(n1)N(C1CCCC1)CCC(=O)N2C(C)C,Potency,[1],"inconclusive: 20.9 µM [cytotoxic, partial curve, poor fit]"
same,Potency,[7],active: 20.9 µM
Cc1c(O)cccc1C(=O)N[C@@H](CSc1ccccc1)[C@H](O)CN1C[C@H]2CCCC[C@@H]2C[C@@H]1C(=O)NC(C)(C)C,Potency,[8],active: 18.7 µM

# Laid out differently: entries from further up
compound | measurement | setting | value
CCCC1OC2C[C@@H]3[C@H]4CCC5=CC(=O)C=C[C@]5(C)[C@H]4C(O)C[C@]3(C)[C@]2(C(=O)CO)O1 (some centres not stated) | Potency | [3] | active: 0.0372 µM
same | Potency | [7] | inconclusive: 0.0264 µM [cytotoxic, full curve, poor fit]
same | Potency | [6] | inactive
